The text below walks through data of PMC4582193.

These are yes or no findings as the source states them, for the method shown. Binding seen in cells or lysates may run through a third protein. A yes stands for co-enrichment or nearness to the bait. Other partners may have been found. Sequences can lack the tags named with a protein.

This test has as its target T1, Flag-tagged kinase-dead mutant Nek2A (Nek2A K37R) (human (cloned from HEK293T)) (UniProt P51955).
T1 sequence: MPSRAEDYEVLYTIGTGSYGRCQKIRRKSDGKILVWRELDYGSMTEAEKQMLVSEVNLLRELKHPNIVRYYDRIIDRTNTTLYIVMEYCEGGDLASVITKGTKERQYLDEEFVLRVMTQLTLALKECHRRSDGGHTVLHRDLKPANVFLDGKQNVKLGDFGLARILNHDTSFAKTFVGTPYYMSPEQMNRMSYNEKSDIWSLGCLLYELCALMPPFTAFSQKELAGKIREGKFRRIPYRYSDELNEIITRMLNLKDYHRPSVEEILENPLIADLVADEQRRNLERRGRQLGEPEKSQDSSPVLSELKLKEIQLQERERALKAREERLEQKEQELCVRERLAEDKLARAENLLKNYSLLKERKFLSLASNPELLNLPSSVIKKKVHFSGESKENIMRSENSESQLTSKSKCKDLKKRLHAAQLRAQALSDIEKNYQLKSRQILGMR
Description: affinity purification with mass spectrometry; Flag-tagged kinase-dead Nek2A expressed in HEK293T cells, affinity purified with M2 agarose, SDS-PAGE, silver staining, bands around 85 kDa identified by mass spectrometry.

B1: centrosomal protein 85 kDa (Cep85), endogenous in HEK293T (protein, UniProt Q6P2H3-1 1-762)
chain: MAMQEKYPTEGISHVTSPSSDVIQKGSSLGTEWQTPVISEPFRSRFSRCSSVADSGDTAIGTSCSDIAEDFCSSSGSPPFQPIKSHVTIPTAHVMPSTLGTSPAKPNSTPVGPSSSKLPLSGLAESVGMTRNGDLGAMKHSPGLSRDLMYFSGATGENGIEQSWFPAVGHERQEEARKFDIPSMESTLNQSAMMETLYSDPHHRVRFHNPRTSTSKELYRVLPEAKKAPGSGAVFERNGPHSNSSGVLPLGLQPAPGLSKPLPSQVWQPSPDTWHPREQSCELSTCRQQLELIRLQMEQMQLQNGAICHHPAAFGPSLPILEPAQWISILNSNEHLLKEKELLIDKQRKHISQLEQKVRESELQVHSALLGRPAPFGDVCLLRLQELQRENTFLRAQFAQKTEALSREKIDLEKKLSASEVEVQLIRESLKVALQKHSEEVKKQEERVKGRDKHINNLKKKCQKESEQNREKQQRIETLERYLADLPTLEDHQKQSQQLKDSELKSTELQEKVTELESLLEETQAICREKEIQLESLRQREAEFSSAGHSLQDKQSVEETSGEGPEVEMESWQKRYDSLQKIVEKQQQKMDQLRSQVQSLEQEVAQEEGTSQALREEAQRRDSALQQLRTAVKELSVQNQDLIEKNLTLQEHLRQAQPGSPPSPDTAQLALELHQELASCLQDLQAVCSIVTQRAQGHDPNLSLLLGIHSAQHPETQLDLQKPDVIKRKLEEVQQLRRDIEDLRTTMSDRYAQDMGENCVTQ
Turning to B1, the binding result was “binds”.
